According to patent publication US20260125455A1:
These are yes or no findings as the source states them, for the method shown. Some entries that bind do so weakly or less than the wild type.

Chains of the proteins cited; added tags and fusions are not shown. Lines headed by an entry give the natural chain unless they say otherwise; changes in a name come on top. Residues count along the entry.
UniProt P13671: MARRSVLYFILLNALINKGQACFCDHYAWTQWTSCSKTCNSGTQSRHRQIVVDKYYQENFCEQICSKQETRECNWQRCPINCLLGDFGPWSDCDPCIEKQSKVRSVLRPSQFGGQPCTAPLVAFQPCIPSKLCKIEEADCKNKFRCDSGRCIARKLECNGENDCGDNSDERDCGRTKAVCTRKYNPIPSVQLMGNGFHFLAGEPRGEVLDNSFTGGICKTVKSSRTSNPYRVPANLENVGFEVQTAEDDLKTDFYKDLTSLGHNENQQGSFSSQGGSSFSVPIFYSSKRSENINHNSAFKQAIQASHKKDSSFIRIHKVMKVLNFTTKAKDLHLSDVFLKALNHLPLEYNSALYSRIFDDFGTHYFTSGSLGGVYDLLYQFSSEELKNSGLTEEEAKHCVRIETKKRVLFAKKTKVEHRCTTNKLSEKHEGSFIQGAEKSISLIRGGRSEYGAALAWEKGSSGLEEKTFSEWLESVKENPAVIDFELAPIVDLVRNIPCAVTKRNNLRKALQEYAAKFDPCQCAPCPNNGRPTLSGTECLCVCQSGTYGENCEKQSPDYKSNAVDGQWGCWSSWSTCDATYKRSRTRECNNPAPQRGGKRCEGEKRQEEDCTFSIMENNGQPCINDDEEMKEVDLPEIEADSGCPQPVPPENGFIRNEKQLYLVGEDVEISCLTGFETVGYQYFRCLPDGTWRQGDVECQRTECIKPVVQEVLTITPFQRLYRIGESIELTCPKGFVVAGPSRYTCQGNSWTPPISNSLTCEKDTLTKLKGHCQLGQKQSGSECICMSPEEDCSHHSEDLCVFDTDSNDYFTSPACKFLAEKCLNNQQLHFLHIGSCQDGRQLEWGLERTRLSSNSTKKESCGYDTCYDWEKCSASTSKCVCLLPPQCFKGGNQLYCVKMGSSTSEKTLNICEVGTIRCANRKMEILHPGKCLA
C6 no His: residues 22-934 of P13671
purified FIM1-2 domains of C6: residues 766-934 of P13671

How the values were obtained:
[1] = target: purified FIM1-2 domains of C6 (human) (UniProt P13671); experiment: ELISA on truncated C6 proteins and SPR
[2] = target: purified FIM1-2 domains of C6 (human) (UniProt P13671); experiment: SPR (BIAcore T200), 1C9 amine-coupled to CM5, FIM1-2 0.975-500 nM
[3] = target: purified FIM1-2 domains of C6 (human) (UniProt P13671); experiment: SPR (BIAcore T200), 1C9 amine-coupled to a CM5 chip, purified FIM1-2 injected
[4] = target: purified FIM1-2 domains of C6 (human) (UniProt P13671); experiment: ELISA, wells coated with FIM1-2_His, 1C9 detected with HRP goat anti-mouse IgG; duplicate wells
C6 no His (human) = C6 no His (human) (UniProt P13671); experiment: ELISA, wells coated with 'C6 no His', 1C9 detected with HRP goat anti-mouse IgG; duplicate wells

Measured: binding

B1: MoC601 MoG1K (mouse anti-C6 monoclonal antibody 1C9) (antibody, V domains shown)
VH: QVQLQQSGAELVKPGASVKISCKASGYAFSDYWMNWVKQRPGKGLEWIGQIYPGDDDTNYNGKFKGKATLTADKSSSTAYMQLSSLTSEDSAVYFCAREGYYGYTYVEYFDVWGTGTTVTVSS
VL: QIVLTQSPAIMSVSPGEKVTLTCSASSSVSYMHWYQQKSGTSPKRWIYDTSKLASGVPARFSGSGSGTSYSLTISSMEAEDAATYYCQQWTSNPLTFGAGTKLELR
binds: all assays above
